Reference: the supplement of paper PMC10849652
The other results are listed elsewhere or left out.

Sequences of proteins named here, by UniProt entry; tags and fusion partners are left off. A change or cut given only in a name is not applied to a line headed by its entry.
UniProt Q9UIM3: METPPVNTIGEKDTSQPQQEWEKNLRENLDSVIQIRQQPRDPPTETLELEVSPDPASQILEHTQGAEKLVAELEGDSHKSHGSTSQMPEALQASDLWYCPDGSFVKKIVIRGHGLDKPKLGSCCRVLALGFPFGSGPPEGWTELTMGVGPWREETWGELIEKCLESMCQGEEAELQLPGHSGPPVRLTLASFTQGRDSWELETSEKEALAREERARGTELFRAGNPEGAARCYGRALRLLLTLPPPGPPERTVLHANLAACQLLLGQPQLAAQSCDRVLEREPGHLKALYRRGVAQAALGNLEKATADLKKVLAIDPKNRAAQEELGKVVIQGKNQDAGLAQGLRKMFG
UniProt Q8WVX9: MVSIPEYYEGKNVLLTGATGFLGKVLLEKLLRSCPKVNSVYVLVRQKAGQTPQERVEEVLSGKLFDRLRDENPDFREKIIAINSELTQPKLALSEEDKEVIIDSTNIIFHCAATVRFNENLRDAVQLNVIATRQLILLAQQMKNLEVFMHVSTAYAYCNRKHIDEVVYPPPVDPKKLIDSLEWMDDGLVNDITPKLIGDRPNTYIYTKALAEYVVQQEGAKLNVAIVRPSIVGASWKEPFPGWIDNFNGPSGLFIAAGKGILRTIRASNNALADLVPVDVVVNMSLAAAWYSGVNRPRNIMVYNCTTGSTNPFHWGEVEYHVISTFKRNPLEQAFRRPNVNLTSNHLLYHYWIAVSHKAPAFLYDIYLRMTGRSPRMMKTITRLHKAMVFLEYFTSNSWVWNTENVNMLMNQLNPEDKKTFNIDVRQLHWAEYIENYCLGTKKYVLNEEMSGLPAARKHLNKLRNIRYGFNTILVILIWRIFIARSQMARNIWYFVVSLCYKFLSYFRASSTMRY
UniProt Q13045: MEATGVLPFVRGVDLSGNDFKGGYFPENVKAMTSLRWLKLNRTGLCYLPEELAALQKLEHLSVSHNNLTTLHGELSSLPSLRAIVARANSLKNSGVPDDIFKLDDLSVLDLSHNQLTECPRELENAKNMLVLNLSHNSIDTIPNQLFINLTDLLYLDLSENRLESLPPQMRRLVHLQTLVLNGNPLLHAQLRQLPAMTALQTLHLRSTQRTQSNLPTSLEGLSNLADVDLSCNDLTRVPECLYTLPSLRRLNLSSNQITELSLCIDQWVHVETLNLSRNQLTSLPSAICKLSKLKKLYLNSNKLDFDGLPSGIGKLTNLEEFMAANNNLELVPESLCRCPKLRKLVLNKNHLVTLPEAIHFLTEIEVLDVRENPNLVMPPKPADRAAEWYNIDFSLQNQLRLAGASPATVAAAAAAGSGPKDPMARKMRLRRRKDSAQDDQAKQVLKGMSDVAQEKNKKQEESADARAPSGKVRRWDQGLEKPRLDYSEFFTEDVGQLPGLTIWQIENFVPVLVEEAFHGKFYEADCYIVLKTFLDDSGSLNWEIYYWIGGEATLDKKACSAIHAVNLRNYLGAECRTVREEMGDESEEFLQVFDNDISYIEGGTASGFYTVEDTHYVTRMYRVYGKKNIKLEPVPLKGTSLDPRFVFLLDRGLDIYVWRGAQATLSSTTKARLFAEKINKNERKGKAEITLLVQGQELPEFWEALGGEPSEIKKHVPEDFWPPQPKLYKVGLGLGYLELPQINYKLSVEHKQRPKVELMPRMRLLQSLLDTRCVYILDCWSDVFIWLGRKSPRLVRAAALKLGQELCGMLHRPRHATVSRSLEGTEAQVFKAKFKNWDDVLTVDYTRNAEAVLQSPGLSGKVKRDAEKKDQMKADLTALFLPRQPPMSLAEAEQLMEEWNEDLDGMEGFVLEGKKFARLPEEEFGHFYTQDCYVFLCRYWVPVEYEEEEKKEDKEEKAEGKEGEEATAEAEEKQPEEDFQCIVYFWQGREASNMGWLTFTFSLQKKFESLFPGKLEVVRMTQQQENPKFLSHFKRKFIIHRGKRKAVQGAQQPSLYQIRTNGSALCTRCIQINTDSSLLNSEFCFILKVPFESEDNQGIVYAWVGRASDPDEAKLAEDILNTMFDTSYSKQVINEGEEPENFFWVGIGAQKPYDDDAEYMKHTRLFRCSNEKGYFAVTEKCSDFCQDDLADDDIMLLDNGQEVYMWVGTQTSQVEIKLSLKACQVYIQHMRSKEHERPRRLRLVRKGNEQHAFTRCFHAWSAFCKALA
UniProt Q6ZV73: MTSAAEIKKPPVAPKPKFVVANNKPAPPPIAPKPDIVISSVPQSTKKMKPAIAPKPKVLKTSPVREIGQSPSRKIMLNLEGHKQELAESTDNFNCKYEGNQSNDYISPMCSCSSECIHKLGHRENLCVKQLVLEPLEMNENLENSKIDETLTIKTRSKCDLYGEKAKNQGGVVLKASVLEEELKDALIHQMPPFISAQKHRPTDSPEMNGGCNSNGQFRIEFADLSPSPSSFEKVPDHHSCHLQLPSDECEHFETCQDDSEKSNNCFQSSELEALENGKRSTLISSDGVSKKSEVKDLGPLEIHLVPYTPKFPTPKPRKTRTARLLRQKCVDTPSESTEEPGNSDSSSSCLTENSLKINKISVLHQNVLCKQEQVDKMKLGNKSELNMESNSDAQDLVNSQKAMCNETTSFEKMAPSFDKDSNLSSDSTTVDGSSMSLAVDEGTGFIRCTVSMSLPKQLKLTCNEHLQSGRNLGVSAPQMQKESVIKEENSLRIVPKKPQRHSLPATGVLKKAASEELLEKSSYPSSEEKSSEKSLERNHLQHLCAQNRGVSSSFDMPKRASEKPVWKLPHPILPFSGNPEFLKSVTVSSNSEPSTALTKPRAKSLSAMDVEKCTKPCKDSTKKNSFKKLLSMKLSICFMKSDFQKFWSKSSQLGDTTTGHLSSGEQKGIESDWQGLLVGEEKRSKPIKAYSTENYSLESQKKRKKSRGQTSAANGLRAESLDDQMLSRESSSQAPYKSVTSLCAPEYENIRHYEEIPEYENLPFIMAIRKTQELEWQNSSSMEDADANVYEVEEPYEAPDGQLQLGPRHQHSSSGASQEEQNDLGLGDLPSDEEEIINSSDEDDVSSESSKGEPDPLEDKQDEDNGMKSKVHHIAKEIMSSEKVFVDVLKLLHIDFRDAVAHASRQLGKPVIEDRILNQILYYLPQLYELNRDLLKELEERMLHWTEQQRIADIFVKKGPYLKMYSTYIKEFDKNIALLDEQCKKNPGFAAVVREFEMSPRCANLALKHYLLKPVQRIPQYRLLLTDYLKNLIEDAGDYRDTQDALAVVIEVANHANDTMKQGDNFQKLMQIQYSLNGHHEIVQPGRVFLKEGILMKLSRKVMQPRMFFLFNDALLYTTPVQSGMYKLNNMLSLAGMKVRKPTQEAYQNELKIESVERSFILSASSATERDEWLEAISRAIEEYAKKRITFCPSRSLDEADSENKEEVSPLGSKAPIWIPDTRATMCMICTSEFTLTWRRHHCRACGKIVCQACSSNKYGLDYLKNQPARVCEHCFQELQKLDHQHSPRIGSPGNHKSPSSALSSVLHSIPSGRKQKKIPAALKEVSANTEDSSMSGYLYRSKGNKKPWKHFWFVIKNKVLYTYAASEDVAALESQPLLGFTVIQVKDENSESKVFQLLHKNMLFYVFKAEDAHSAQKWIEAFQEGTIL
UniProt Q9UBU6: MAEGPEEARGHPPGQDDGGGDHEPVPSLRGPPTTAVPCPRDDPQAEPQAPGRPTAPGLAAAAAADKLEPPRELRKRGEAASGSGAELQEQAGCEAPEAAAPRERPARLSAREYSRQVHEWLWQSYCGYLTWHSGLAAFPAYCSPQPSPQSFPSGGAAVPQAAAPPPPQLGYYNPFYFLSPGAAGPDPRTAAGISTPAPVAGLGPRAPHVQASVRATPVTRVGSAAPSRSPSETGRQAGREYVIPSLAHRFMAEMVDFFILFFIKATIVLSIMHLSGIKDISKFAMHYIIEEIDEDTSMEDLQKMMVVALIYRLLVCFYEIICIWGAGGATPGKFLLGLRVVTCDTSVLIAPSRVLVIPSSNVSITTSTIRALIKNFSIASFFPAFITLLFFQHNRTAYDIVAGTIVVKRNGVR
UniProt Q17RN3: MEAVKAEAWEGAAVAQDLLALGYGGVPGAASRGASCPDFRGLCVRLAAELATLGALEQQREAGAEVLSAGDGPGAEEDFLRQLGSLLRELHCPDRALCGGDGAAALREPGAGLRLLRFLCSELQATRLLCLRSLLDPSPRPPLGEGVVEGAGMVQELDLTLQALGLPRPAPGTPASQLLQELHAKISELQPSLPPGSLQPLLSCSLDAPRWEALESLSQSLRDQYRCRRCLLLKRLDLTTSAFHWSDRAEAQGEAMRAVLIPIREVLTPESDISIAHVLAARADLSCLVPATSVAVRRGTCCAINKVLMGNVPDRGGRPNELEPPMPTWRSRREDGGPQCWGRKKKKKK
UniProt O43427: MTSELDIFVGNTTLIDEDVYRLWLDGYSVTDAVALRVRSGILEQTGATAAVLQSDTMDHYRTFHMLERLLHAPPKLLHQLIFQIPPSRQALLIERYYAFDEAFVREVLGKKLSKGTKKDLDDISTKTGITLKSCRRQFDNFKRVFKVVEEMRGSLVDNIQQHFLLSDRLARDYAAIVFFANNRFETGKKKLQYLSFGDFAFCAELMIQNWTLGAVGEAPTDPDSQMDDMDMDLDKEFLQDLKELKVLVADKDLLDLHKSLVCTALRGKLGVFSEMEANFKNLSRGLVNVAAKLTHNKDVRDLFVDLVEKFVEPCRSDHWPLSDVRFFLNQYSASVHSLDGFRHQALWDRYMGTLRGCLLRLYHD
UniProt Q9NXK8: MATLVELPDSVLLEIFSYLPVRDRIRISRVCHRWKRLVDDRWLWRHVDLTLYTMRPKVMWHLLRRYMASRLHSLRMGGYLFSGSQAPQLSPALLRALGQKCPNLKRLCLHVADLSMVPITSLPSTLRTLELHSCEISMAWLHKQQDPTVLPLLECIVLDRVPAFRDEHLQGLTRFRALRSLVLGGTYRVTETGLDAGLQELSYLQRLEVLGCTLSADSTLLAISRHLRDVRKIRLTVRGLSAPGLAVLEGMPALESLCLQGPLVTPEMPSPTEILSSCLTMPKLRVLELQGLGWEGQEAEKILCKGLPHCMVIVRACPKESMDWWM
UniProt A6NHQ2: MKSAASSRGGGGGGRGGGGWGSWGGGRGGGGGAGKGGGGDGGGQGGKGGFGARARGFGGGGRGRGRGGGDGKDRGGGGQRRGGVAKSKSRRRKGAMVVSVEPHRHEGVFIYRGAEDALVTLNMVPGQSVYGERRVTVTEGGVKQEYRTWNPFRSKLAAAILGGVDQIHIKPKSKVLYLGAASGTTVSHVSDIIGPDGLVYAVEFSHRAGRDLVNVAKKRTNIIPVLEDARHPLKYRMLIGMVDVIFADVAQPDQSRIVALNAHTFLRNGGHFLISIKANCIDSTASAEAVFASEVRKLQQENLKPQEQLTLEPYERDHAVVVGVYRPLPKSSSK
UniProt P22830: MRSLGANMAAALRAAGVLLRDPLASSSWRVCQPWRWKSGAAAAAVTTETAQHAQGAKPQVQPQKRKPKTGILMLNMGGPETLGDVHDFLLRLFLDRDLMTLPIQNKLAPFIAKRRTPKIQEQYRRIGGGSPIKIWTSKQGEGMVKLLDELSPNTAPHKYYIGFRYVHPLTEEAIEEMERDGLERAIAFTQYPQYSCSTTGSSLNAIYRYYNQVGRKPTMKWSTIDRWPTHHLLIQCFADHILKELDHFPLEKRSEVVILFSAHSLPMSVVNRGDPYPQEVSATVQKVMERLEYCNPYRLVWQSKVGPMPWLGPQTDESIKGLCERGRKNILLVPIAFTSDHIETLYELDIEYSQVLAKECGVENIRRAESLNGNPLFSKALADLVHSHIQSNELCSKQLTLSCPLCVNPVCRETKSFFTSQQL
UniProt P26885: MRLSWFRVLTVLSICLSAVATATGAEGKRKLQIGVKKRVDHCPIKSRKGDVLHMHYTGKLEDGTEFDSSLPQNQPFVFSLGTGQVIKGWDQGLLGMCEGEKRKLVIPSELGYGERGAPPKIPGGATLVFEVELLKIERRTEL

compound: Cc1cc(Nc2cc(N3CCN(C)CC3)nc(Sc3ccc(NC(=O)C4CC4)cc3)n2)n[nH]1 [tozasertib]; test: log2 fold change, soluble protein after heating vs DMSO (PISA); higher = thermal stabilisation; K562 lysate, 10 uM; active = over 0.2 and 3.5 SD of the protein, either way, in both replicates (recomputed)
In short: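 K562 pellets were dounce-homogenised in PBS pH 7.4 with 1 mM MgCl2, and the crude extract at 1 mg/mL protein was treated with 10 μM compound for 30 min. Aliquots were heated for 3 min across 48°C-58°C, pooled, and brought to 0.5% NP-40 at 4°C; soluble protein was the supernatant after 21,000xg for 90 min. Soluble protein was quantified by TMTpro 16plex LC-MS/MS with channel sums equalised, and reported as log2 fold change in thermal stability against DMSO controls, with values from duplicates.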

log2 fold change, inactive:
FKBPL (UniProt Q9UIM3) 0.008
FAR1 (UniProt Q8WVX9) -0.007
FLII (UniProt Q13045) 0.043
FAU (UniProt E9PR30) -0.027
FGFR1OP (UniProt O95684) 0.036
FNTB (UniProt P49356) -0.069
FBXO6 (UniProt Q9NRD1) -0.035
FGD6 (UniProt Q6ZV73) 0
FLAD1 (UniProt Q8NFF5) -0.052
FLNC (UniProt Q14315) -0.033
FAM8A1 (UniProt Q9UBU6) -0.09
FBXW9 (UniProt Q5XUX1) 0.008
FAM98C (UniProt Q17RN3) -0.078
FIBP (UniProt O43427) 0.05
FBXL12 (UniProt Q9NXK8) -0.026
FBLL1 (UniProt A6NHQ2) 0.047
FN1 (UniProt P02751) -0.098
FECH isoform 2 (UniProt P22830) 0
FAM98A (UniProt Q8NCA5) 0.023
FASN (UniProt P49327) 0.025
FKBP2 (UniProt P26885) -0.008
FMNL1 isoform 3 (UniProt O95466) -0.051
FKBP8 isoform 2 (UniProt Q14318) -0.024

Reprinted at random: 2 records from the list
log2 fold change, inactive:
FAU (UniProt E9PR30) -0.027
FAR1 (UniProt Q8WVX9) -0.007
